# Source: the supplement of paper PMC8728848
# The list shows a part of the results.
# B1: RsaA-N-term (Caulobacter crescentus), P35828 (protein)
# chain: MAYTTAQLVTAYTNANLGKAPDAATTLTLDAYATQTQTGGLSDAAALTNTLKLVNSTTAVAIQTYQFFTGVAPSAAGLDFLVDSTTNTNDLNDAYYSKFAQENRFINFSINLATGAGAGATAFAAAYTGVSYAQTVATAYDKIIGNAVATAAGVDVAAAVAFLSRQANIDYLTAFVRANTPFTAAADIDLAVKAALIGTILNAATVSGIGGYATATAAMINDLSDGALSTDNAAGVNLFTAYPSSGVSGSTLSLTTGTDTLTGTANNDTFVAGEVAGDGSGWSHPQFEKGG
# Key:
# Experiment in all cases: glycan array binding signal (z-score within array); higher = stronger binding
# Settings in all cases: glycan notation: IUPAC condensed, linker removed
# Fuc(a1-2)Gal = target: Fuc(a1-2)Gal
# Outline: (§1)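 Glycan array binding is given as a within-array Z-score, which can be read as non-binding when negative. The arrays, 3228 of them, came from the Consortium for Functional Glycomics database and were retained only where the protein sequence was available. Z-scores were averaged across arrays of the same protein sequence at different concentrations or buffers and across linkers.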
# Fuc(a1-2)Gal(b1-3)GalNAc = target: Fuc(a1-2)Gal(b1-3)GalNAc
# Outline: as §1
# [1] = target: Fuc(a1-2)Gal(b1-3)GalNAc(a1-3)[Fuc(a1-2)]Gal(b1-4)Glc
# Outline: as §1
# [2] = target: Fuc(a1-2)Gal(b1-3)GalNAc(a1-3)[Fuc(a1-2)]Gal(b1-4)GlcNAc
# Outline: as §1
# [3] = target: Fuc(a1-2)Gal(b1-3)GalNAc(b1-3)Gal
# Outline: as §1
# [4] = target: Fuc(a1-2)Gal(b1-3)GalNAc(b1-3)Gal(a1-4)Gal(b1-4)Glc
# Outline: as §1
# [5] = target: Fuc(a1-2)Gal(b1-3)GalNAc(b1-4)[Neu5Ac(a2-3)]Gal(b1-4)Glc
# Outline: as §1
# Fuc(a1-2)Gal(b1-3)GlcNAc = target: Fuc(a1-2)Gal(b1-3)GlcNAc
# Outline: as §1
# [6] = target: Fuc(a1-2)Gal(b1-3)GlcNAc(b1-2)Man(a1-3)[Fuc(a1-2)Gal(b1-3)GlcNAc(b1-2)Man(a1-6)]Man(b1-4)GlcNAc(b1-4)GlcNAc
# Outline: as §1
# [7] = target: Fuc(a1-2)Gal(b1-3)GlcNAc(b1-2)Man(a1-3)[Fuc(a1-2)Gal(b1-3)GlcNAc(b1-2)Man(a1-6)]Man(b1-4)GlcNAc(b1-4)[Fuc(a1-6)]GlcNAc
# Outline: as §1
# [8] = target: Fuc(a1-2)Gal(b1-3)GlcNAc(b1-3)Gal(b1-4)Glc
# Outline: as §1
# [9] = target: Fuc(a1-2)Gal(b1-3)GlcNAc(b1-3)GalNAc
# Outline: as §1
# [10] = target: Fuc(a1-2)Gal(b1-3)GlcNAc(b1-3)[Fuc(a1-2)Gal(b1-3)GlcNAc(b1-6)]GalNAc
# Outline: as §1
# [11] = target: Fuc(a1-2)Gal(b1-3)GlcNAc(b1-3)[Gal(b1-4)GlcNAc(b1-6)]Gal(b1-4)Glc
# Outline: as §1
# [12] = target: Fuc(a1-2)Gal(b1-3)GlcNAc(b1-3)[Neu5Ac(a2-6)Gal(b1-4)GlcNAc(b1-6)]Gal(b1-4)Glc
# Outline: as §1
# [13] = target: Fuc(a1-2)Gal(b1-3)GlcNAc6S
# Outline: as §1
# [14] = target: Fuc(a1-2)Gal(b1-3)[Fuc(a1-4)]GlcNAc
# Outline: as §1
# [15] = target: Fuc(a1-2)Gal(b1-3)[Fuc(a1-4)]GlcNAc(b1-2)Man(a1-3)[Fuc(a1-2)Gal(b1-3)[Fuc(a1-4)]GlcNAc(b1-2)Man(a1-3)]Man(b1-4)GlcNAc(b1-4)GlcNAc
# Outline: as §1
# [16] = target: Fuc(a1-2)Gal(b1-3)[Fuc(a1-4)]GlcNAc(b1-2)Man(a1-3)[Fuc(a1-2)Gal(b1-3)[Fuc(a1-4)]GlcNAc(b1-2)Man(a1-6)]Man(b1-4)GlcNAc(b1-4)[Fuc(a1-6)]GlcNAc(b1-4)[Fuc(a1-6)]GlcNAc
# Outline: as §1
# [17] = target: Fuc(a1-2)Gal(b1-3)[Fuc(a1-4)]GlcNAc(b1-3)[Fuc(a1-3)[Gal(b1-4)]GlcNAc(b1-6)]Gal(b1-4)Glc
# Outline: as §1
# [18] = target: Fuc(a1-2)Gal(b1-3)[Fuc(a1-4)]GlcNAc(b1-3)[Gal(b1-4)GlcNAc(b1-6)]Gal(b1-4)Glc
# Outline: as §1
# [19] = target: Fuc(a1-2)Gal(b1-4)Fuc(a1-3)]GlcNAc(b1-2)Man(a1-3)[Fuc(a1-2)Gal(b1-4)[Fuc(a1-3)]GlcNAc(b1-2)Man(a1-6)]Man(b1-4)GlcNAc(b1-4)GlcNAc
# Outline: as §1
# Fuc(a1-2)Gal(b1-4)Glc = target: Fuc(a1-2)Gal(b1-4)Glc
# Outline: as §1
# Fuc(a1-2)Gal(b1-4)Glc6S = target: Fuc(a1-2)Gal(b1-4)Glc6S
# Outline: as §1
# Fuc(a1-2)Gal(b1-4)GlcNAc = target: Fuc(a1-2)Gal(b1-4)GlcNAc
# Outline: as §1
# [20] = target: Fuc(a1-2)Gal(b1-4)GlcNAc(b1-2)Man
# Outline: as §1
# [21] = target: Fuc(a1-2)Gal(b1-4)GlcNAc(b1-2)Man(a1-3)[Fuc(a1-2)Gal(b1-4)GlcNAc(b1-2)Man(a1-6)]Man(b1-4)GlcNAc(b1-4)GlcNAc
# Outline: as §1
# [22] = target: Fuc(a1-2)Gal(b1-4)GlcNAc(b1-2)Man(a1-3)[Fuc(a1-2)Gal(b1-4)GlcNAc(b1-2)Man(a1-6)]Man(b1-4)GlcNAc(b1-4)[Fuc(a1-6)]GlcNAc
# Outline: as §1
# [23] = target: Fuc(a1-2)Gal(b1-4)GlcNAc(b1-2)[Fuc(a1-2)Gal(b1-4)GlcNAc(b1-4)]Man(a1-3)[Fuc(a1-2)Gal(b1-4)GlcNAc(b1-2)Man(a1-6)]Man(b1-4)GlcNAc(b1-4)GlcNAc
# Outline: as §1
# [24] = target: Fuc(a1-2)Gal(b1-4)GlcNAc(b1-3)Gal(b1-4)GlcNAc
# Outline: as §1
binder,measurement,setting,value
B1,glycan array binding signal (z-score),Fuc(a1-2)Gal,0.312
same,glycan array binding signal (z-score),Fuc(a1-2)Gal(b1-3)GalNAc,-0.026
same,glycan array binding signal (z-score),[1],0.281
same,glycan array binding signal (z-score),[2],0.508
same,glycan array binding signal (z-score),[3],-0.298
same,glycan array binding signal (z-score),[4],-0.414
same,glycan array binding signal (z-score),[5],0.175
same,glycan array binding signal (z-score),Fuc(a1-2)Gal(b1-3)GlcNAc,0.278
same,glycan array binding signal (z-score),[6],-0.148
same,glycan array binding signal (z-score),[7],-0.76
same,glycan array binding signal (z-score),[8],1.29
same,glycan array binding signal (z-score),[9],0.429
same,glycan array binding signal (z-score),[10],-0.36
same,glycan array binding signal (z-score),[11],0.22
same,glycan array binding signal (z-score),[12],-0.539
same,glycan array binding signal (z-score),[13],-0.712
same,glycan array binding signal (z-score),[14],-0.197
same,glycan array binding signal (z-score),[15],0.077
same,glycan array binding signal (z-score),[16],1.01
same,glycan array binding signal (z-score),[17],-1.93
same,glycan array binding signal (z-score),[18],-0.876
same,glycan array binding signal (z-score),[19],5.97
same,glycan array binding signal (z-score),Fuc(a1-2)Gal(b1-4)Glc,-1.21
same,glycan array binding signal (z-score),Fuc(a1-2)Gal(b1-4)Glc6S,-0.343
same,glycan array binding signal (z-score),Fuc(a1-2)Gal(b1-4)GlcNAc,0.402
same,glycan array binding signal (z-score),[20],-0.672
same,glycan array binding signal (z-score),[21],0.243
same,glycan array binding signal (z-score),[22],7.05
same,glycan array binding signal (z-score),[23],-1.7
same,glycan array binding signal (z-score),[24],-0.634

# Reformatted tab-delimited: part of the list above
binder	measurement	setting	value
B1	glycan array binding signal (z-score)	Fuc(a1-2)Gal(b1-4)Glc	-1.21
same	glycan array binding signal (z-score)	Fuc(a1-2)Gal(b1-4)Glc6S	-0.343
same	glycan array binding signal (z-score)	Fuc(a1-2)Gal(b1-4)GlcNAc	0.402
same	glycan array binding signal (z-score)	[20]	-0.672
same	glycan array binding signal (z-score)	[21]	0.243
same	glycan array binding signal (z-score)	[22]	7.05
same	glycan array binding signal (z-score)	[23]	-1.7
